In assay [1] the target is KCTD19 (mouse (endogenous in testis)) (UniProt Q562E2). In words: co-IP.
Assay [2] addresses T1, ZFP541 (mouse (endogenous in testis)) (UniProt Q0GGX2).
T1 sequence: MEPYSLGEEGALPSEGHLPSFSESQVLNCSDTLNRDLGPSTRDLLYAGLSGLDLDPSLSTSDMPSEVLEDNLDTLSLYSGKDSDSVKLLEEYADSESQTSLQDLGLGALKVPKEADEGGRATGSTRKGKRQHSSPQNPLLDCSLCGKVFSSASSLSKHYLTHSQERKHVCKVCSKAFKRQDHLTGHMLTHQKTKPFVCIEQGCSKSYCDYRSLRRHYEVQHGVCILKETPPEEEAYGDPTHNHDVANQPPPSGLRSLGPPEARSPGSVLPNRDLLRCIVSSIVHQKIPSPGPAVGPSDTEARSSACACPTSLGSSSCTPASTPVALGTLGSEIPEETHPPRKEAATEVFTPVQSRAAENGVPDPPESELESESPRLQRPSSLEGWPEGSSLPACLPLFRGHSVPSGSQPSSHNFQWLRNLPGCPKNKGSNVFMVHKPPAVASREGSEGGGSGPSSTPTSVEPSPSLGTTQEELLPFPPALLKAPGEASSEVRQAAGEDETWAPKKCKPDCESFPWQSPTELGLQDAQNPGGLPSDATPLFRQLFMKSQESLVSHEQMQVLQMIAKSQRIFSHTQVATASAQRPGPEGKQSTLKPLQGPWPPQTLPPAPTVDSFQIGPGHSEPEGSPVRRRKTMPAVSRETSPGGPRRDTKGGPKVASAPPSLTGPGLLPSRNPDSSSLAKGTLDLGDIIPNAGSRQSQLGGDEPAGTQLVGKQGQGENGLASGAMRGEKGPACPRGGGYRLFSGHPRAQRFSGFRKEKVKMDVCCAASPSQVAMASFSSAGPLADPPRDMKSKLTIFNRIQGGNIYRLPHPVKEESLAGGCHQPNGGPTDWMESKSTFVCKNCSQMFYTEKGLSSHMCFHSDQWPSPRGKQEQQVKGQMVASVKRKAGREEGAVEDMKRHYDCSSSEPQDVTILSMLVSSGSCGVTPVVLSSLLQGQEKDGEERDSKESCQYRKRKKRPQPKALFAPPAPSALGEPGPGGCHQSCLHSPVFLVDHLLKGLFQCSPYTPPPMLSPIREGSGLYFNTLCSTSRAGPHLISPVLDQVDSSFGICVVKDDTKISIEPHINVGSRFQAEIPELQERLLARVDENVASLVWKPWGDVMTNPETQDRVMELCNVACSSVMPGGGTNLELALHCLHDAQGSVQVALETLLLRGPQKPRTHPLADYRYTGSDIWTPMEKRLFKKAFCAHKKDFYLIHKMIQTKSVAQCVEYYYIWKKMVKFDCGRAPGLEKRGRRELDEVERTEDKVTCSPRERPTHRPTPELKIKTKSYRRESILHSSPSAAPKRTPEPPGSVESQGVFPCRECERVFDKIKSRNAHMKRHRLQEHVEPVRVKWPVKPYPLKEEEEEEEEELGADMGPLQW
In words: co-IP.

Amino acid sequences for entries named in this document (tags omitted). A change or cut given only in a name is not applied to a line headed by its entry.
UniProt Q562E2: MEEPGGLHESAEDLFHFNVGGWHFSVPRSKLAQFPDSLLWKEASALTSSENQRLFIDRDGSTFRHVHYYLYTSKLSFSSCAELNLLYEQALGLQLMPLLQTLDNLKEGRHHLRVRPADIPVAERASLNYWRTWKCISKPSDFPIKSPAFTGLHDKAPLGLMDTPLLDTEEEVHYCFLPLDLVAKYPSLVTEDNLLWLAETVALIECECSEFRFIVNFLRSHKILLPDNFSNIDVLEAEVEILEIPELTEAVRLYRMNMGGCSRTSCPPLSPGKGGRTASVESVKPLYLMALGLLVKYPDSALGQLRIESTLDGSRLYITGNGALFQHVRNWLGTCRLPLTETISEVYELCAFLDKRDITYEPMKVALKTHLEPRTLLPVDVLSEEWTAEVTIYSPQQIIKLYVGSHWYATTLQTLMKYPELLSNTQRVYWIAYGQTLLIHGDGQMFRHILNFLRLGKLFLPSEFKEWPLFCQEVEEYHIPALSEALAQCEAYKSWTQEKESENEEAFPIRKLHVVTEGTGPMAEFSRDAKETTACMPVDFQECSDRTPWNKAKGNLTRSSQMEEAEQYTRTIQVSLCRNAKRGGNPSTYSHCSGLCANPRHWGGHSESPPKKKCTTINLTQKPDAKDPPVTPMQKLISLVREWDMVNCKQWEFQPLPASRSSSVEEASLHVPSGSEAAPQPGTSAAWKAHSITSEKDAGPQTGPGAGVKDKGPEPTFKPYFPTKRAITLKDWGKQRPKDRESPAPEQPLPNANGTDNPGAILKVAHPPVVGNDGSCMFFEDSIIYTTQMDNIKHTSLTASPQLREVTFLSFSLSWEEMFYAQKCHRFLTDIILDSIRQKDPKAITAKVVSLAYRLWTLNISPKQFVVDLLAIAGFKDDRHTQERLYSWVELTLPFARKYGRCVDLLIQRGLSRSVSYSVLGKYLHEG
UniProt P70288: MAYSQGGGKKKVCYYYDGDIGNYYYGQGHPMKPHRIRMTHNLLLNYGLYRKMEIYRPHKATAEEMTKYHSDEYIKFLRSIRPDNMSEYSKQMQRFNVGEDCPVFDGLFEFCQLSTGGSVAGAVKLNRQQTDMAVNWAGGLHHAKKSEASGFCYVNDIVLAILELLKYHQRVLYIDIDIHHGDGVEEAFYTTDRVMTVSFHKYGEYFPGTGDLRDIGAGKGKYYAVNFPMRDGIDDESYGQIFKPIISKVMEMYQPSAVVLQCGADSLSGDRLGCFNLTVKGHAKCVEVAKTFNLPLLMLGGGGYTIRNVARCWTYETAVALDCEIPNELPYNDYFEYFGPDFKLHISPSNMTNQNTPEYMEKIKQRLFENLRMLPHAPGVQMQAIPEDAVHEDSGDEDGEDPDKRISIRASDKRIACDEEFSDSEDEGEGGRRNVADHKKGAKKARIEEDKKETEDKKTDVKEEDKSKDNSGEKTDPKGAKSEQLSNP
UniProt O09106: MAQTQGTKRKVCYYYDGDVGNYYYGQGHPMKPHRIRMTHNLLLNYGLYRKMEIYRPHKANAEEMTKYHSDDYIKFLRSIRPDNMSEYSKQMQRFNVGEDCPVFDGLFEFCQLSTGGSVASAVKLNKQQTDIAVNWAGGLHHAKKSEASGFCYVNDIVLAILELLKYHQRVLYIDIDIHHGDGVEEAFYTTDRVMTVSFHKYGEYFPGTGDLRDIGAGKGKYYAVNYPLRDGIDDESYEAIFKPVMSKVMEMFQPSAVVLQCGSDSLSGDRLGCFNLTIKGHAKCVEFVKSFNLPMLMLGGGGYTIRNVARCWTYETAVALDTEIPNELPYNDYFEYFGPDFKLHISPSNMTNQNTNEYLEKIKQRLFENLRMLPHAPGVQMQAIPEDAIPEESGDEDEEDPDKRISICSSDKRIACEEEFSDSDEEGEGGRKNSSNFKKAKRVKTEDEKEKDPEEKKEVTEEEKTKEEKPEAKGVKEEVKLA

Results are given in words; binding and its absence hold for the method and conditions named. Binding seen in cells or lysates may run through a third protein. A result given as binding can be weak or reduced; the word gives no strength.

Turning to “HDAC2 (from UniProt P70288 1-488) (enzyme)”, the binding result in assay [1] is recorded as “binds”. Same read-out and setting: the result for “HDAC1 (from UniProt O09106 1-482) (enzyme)” reads “binds”. KCTD19 (from UniProt Q562E2-2): in assay [2], the binding result is “binds”.

B1: terminal deoxynucleotidyltransferase interacting factor 1 (TDIF1) (protein, UniProt Q99LB0 1-328)
chain: MGATGDTEQPRGPGGAERGGLELGDAGAAGQPVLTNPWNIMIKHRQVQRRGRRSQMTTSFTDPAISMDLLRAVLQPSINEEIQGVFNKYMKFFQKAALNVRDNVGEEVDAEQLIQEACRSCLEQAKLLFSDGEKVIPRLAHELPGIKRGRQAEEESHRGSPIPKKRKGRPPGHVLSNDRAAAGMVWKQKSCEPIRREGPKWDPARLNESTTFVLGSRANKALGMGGTRGRIYIKHPHLFKYAADPQDKHWLAEQHHMRATGGKMAYLLIEEDIRDLAASDDYRGCLDLKLEELKSFVLPSWMVEKMRKYMETLRTENEHRAAEAPPQT
Turning to B1, the binding entry in assay [1] is “binds”.

B2: ZFP541 (protein, UniProt Q0GGX2 1-1363)
chain: MEPYSLGEEGALPSEGHLPSFSESQVLNCSDTLNRDLGPSTRDLLYAGLSGLDLDPSLSTSDMPSEVLEDNLDTLSLYSGKDSDSVKLLEEYADSESQTSLQDLGLGALKVPKEADEGGRATGSTRKGKRQHSSPQNPLLDCSLCGKVFSSASSLSKHYLTHSQERKHVCKVCSKAFKRQDHLTGHMLTHQKTKPFVCIEQGCSKSYCDYRSLRRHYEVQHGVCILKETPPEEEAYGDPTHNHDVANQPPPSGLRSLGPPEARSPGSVLPNRDLLRCIVSSIVHQKIPSPGPAVGPSDTEARSSACACPTSLGSSSCTPASTPVALGTLGSEIPEETHPPRKEAATEVFTPVQSRAAENGVPDPPESELESESPRLQRPSSLEGWPEGSSLPACLPLFRGHSVPSGSQPSSHNFQWLRNLPGCPKNKGSNVFMVHKPPAVASREGSEGGGSGPSSTPTSVEPSPSLGTTQEELLPFPPALLKAPGEASSEVRQAAGEDETWAPKKCKPDCESFPWQSPTELGLQDAQNPGGLPSDATPLFRQLFMKSQESLVSHEQMQVLQMIAKSQRIFSHTQVATASAQRPGPEGKQSTLKPLQGPWPPQTLPPAPTVDSFQIGPGHSEPEGSPVRRRKTMPAVSRETSPGGPRRDTKGGPKVASAPPSLTGPGLLPSRNPDSSSLAKGTLDLGDIIPNAGSRQSQLGGDEPAGTQLVGKQGQGENGLASGAMRGEKGPACPRGGGYRLFSGHPRAQRFSGFRKEKVKMDVCCAASPSQVAMASFSSAGPLADPPRDMKSKLTIFNRIQGGNIYRLPHPVKEESLAGGCHQPNGGPTDWMESKSTFVCKNCSQMFYTEKGLSSHMCFHSDQWPSPRGKQEQQVKGQMVASVKRKAGREEGAVEDMKRHYDCSSSEPQDVTILSMLVSSGSCGVTPVVLSSLLQGQEKDGEERDSKESCQYRKRKKRPQPKALFAPPAPSALGEPGPGGCHQSCLHSPVFLVDHLLKGLFQCSPYTPPPMLSPIREGSGLYFNTLCSTSRAGPHLISPVLDQVDSSFGICVVKDDTKISIEPHINVGSRFQAEIPELQERLLARVDENVASLVWKPWGDVMTNPETQDRVMELCNVACSSVMPGGGTNLELALHCLHDAQGSVQVALETLLLRGPQKPRTHPLADYRYTGSDIWTPMEKRLFKKAFCAHKKDFYLIHKMIQTKSVAQCVEYYYIWKKMVKFDCGRAPGLEKRGRRELDEVERTEDKVTCSPRERPTHRPTPELKIKTKSYRRESILHSSPSAAPKRTPEPPGSVESQGVFPCRECERVFDKIKSRNAHMKRHRLQEHVEPVRVKWPVKPYPLKEEEEEEEEELGADMGPLQW
Regarding B2, the binding result in assay [1] is listed as “binds”.

These data come from doi:10.1101/2021.01.15.426901.
